Experimental data: PubChem BioAssay AID1259405 (NCATS, 2018)
In all, the deposit lists about 50,000 reagents; this is a part drawn at random. Of all reagents, about 4,000 (8%) are marked active. 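Mouse siRNA library applied to hamster cells; one well for each siRNA.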 The numbers tell different reagents against one gene apart.

Purpose: 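Silenced genes that increase secreted GFP made by CHO cells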 (primary screen)
System: Chinese hamster CHO-K1 ovary cells with stable secreted eGFP expression
Reagent: single siRNA against mouse genes, 0.8 pmol siRNA per well (2 µl of 400 nM stock)
Time to read-out: 3 days
Read-out: 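Per-well intracellular GFP measured by laser scanning cytometry, plus viability from ATP luminescence, each relative to plate median of non-targeting control wells, in %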
Direction: GFP, % of control: higher = more GFP per well, higher productivity; viability (ATP), % of control: higher = more viable cells (more ATP)
Call rule: 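Called active when intracellular GFP, relative to negative control, is at or above 120%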

| Target gene | siRNA no. | GFP, % of control | viability (ATP), % of control | outcome |
| --- | --- | --- | --- | --- |
| Fmo2 (GeneID 55990) | 1 | 138 | 94.1 | active |
| Fmo2 (GeneID 55990) | 2 | 89 | 100 | inactive |
| Fmo2 (GeneID 55990) | 3 | 91.2 | 87 | inactive |
| Cfap161 (GeneID 75556) | 1 | 86.2 | 87.5 | inactive |
| Cfap161 (GeneID 75556) | 2 | 55.1 | 42.4 | inactive |
| Cfap161 (GeneID 75556) | 3 | 52.7 | 88.8 | inactive |
| Lrrtm2 (GeneID 107065) | 1 | 91.3 | 110 | inactive |
| Lrrtm2 (GeneID 107065) | 2 | 72 | 83.5 | inactive |
| Lrrtm2 (GeneID 107065) | 3 | 88.7 | 94.8 | inactive |
| Naalad2 (GeneID 72560) | 1 | 89.7 | 97.6 | inactive |
| Naalad2 (GeneID 72560) | 2 | 120 | 130 | inactive |
| Naalad2 (GeneID 72560) | 3 | 49.2 | 68.8 | inactive |
| Dnali1 (GeneID 75563) | 1 | 68.2 | 110 | inactive |
| Dnali1 (GeneID 75563) | 2 | 136 | 100 | active |
| Gal (GeneID 14419) | 1 | 69.3 | 72.2 | inactive |
| Gal (GeneID 14419) | 2 | 99 | 72.3 | inactive |
| Gal (GeneID 14419) | 3 | 80.5 | 61.1 | inactive |
| Rem2 (GeneID 140743) | 1 | 80.4 | 56.9 | inactive |
| Rem2 (GeneID 140743) | 2 | 75.6 | 63.1 | inactive |
| Rem2 (GeneID 140743) | 3 | 31.9 | 58 | inactive |
| Serpina3n (GeneID 20716) | 1 | 69.1 | 91.3 | inactive |
| Serpina3n (GeneID 20716) | 2 | 84.5 | 94.8 | inactive |
| Serpina3n (GeneID 20716) | 3 | 121 | 70.5 | active |
| Emc6 (GeneID 66048) | 1 | 69.5 | 80.5 | inactive |
| Emc6 (GeneID 66048) | 2 | 132 | 73.8 | active |
| Emc6 (GeneID 66048) | 3 | 92.2 | 80.1 | inactive |
| Dido1 (GeneID 23856) | 1 | 72.8 | 89.7 | inactive |
| Dido1 (GeneID 23856) | 2 | 44.1 | 52.2 | inactive |
| Dido1 (GeneID 23856) | 3 | 93.3 | 84.9 | inactive |
| Rgs9bp (GeneID 243923) | 1 | 76.6 | 61.2 | inactive |
| Rgs9bp (GeneID 243923) | 2 | 49.8 | 57.8 | inactive |
| Rgs9bp (GeneID 243923) | 3 | 64.8 | 80 | inactive |
| Klf1 (GeneID 16596) | 1 | 68.6 | 75.9 | inactive |
| Klf1 (GeneID 16596) | 2 | 103 | 82.8 | inactive |
| Klf1 (GeneID 16596) | 3 | 71.1 | 98 | inactive |
| Ifi47 (GeneID 15953) | 1 | 41 | 69.7 | inactive |
| Ifi47 (GeneID 15953) | 2 | 65.7 | 84.5 | inactive |
| Ifi47 (GeneID 15953) | 3 | 57.7 | 55.3 | inactive |
| Daw1 (GeneID 71227) | 1 | 99.8 | 89.4 | inactive |
| Daw1 (GeneID 71227) | 2 | 24 | 16.5 | inactive |
| Daw1 (GeneID 71227) | 3 | 77.2 | 70.1 | inactive |
| Ctsf (GeneID 56464) | 1 | 69.2 | 54.7 | inactive |
| Ctsf (GeneID 56464) | 2 | 50.4 | 26.1 | inactive |
| Ctsf (GeneID 56464) | 3 | 51.5 | 68.8 | inactive |
| Ppil1 (GeneID 68816) | 1 | 75.4 | 97.2 | inactive |
| Ppil1 (GeneID 68816) | 2 | 28.2 | 36.5 | inactive |
| Ppil1 (GeneID 68816) | 3 | 63.7 | 69.8 | inactive |
| Atg9a (GeneID 245860) | 1 | 117 | 90.2 | inactive |
| Atg9a (GeneID 245860) | 2 | 38.4 | 45.4 | inactive |
| Atg9a (GeneID 245860) | 3 | 67.8 | 79 | inactive |
| Chmp4b (GeneID 75608) | 1 | 53.3 | 65 | inactive |
| Chmp4b (GeneID 75608) | 2 | 28.1 | 33.5 | inactive |
| Chmp4b (GeneID 75608) | 3 | 69.9 | 51.3 | inactive |
| Akap8 (GeneID 56399) | 1 | 95.4 | 124 | inactive |
| Akap8 (GeneID 56399) | 2 | 58.2 | 81.9 | inactive |
| Myc (GeneID 17869) | 1 | 113 | 101 | inactive |
| Myc (GeneID 17869) | 2 | 85.6 | 56.8 | inactive |
| Myc (GeneID 17869) | 3 | 95.4 | 78 | inactive |
| Fuca1 (GeneID 71665) | 1 | 70.6 | 78.1 | inactive |
| Fuca1 (GeneID 71665) | 2 | 96 | 84.5 | inactive |
| Fuca1 (GeneID 71665) | 3 | 82.3 | 52.6 | inactive |
| Tox3 (GeneID 244579) | 1 | 72.2 | 88 | inactive |
| Tox3 (GeneID 244579) | 2 | 90.4 | 84.8 | inactive |
| Tox3 (GeneID 244579) | 3 | 79.6 | 72.5 | inactive |
| Cd300ld (GeneID 217305) | 1 | 90.8 | 46.4 | inactive |
| Cd300ld (GeneID 217305) | 2 | 75.5 | 92.7 | inactive |
| Cd300ld (GeneID 217305) | 3 | 61.5 | 56.3 | inactive |
| Cd53 (GeneID 12508) | 1 | 76.8 | 62.7 | inactive |
| Cd53 (GeneID 12508) | 2 | 81.7 | 74 | inactive |
| Cd53 (GeneID 12508) | 3 | 135 | 48 | active |
| Rasgrf1 (GeneID 19417) | 1 | 72.2 | 82.2 | inactive |
| Rasgrf1 (GeneID 19417) | 2 | 115 | 38.4 | inactive |
| Rasgrf1 (GeneID 19417) | 3 | 78.1 | 76.4 | inactive |
| Rnf32 (GeneID 56874) | 1 | 96 | 72.7 | inactive |
| Rnf32 (GeneID 56874) | 2 | 66.3 | 49.4 | inactive |
| Rnf32 (GeneID 56874) | 3 | 79 | 72.1 | inactive |
| Cad (GeneID 69719) | 1 | 101 | 98.8 | inactive |
| Cad (GeneID 69719) | 2 | 91.4 | 95.1 | inactive |
| Cad (GeneID 69719) | 3 | 79 | 62.5 | inactive |
| Ajm1 (GeneID 381353) | 1 | 85.1 | 74.6 | inactive |
| Ajm1 (GeneID 381353) | 2 | 75.3 | 65.3 | inactive |
| Ajm1 (GeneID 381353) | 3 | 62.2 | 71 | inactive |
| Tsen34 (GeneID 66078) | 1 | 61.8 | 62.3 | inactive |
| Tsen34 (GeneID 66078) | 2 | 61.6 | 68.2 | inactive |
| Tsen34 (GeneID 66078) | 3 | 140 | 85.8 | active |

Hits, among the entries above:
| Target gene | siRNA no. | GFP, % of control | viability (ATP), % of control | outcome |
| --- | --- | --- | --- | --- |
| Fmo2 (GeneID 55990) | 1 | 138 | 94.1 | active |
| Dnali1 (GeneID 75563) | 2 | 136 | 100 | active |
| Serpina3n (GeneID 20716) | 3 | 121 | 70.5 | active |
| Emc6 (GeneID 66048) | 2 | 132 | 73.8 | active |
| Cd53 (GeneID 12508) | 3 | 135 | 48 | active |
| Tsen34 (GeneID 66078) | 3 | 140 | 85.8 | active |
